In the supplement of paper PMC7666118:
The list shows a part of the results.

Amino acid sequences for entries named in this document (tags omitted). A change or cut given only in a name is not applied to a line headed by its entry.
UniProt Q9BV86: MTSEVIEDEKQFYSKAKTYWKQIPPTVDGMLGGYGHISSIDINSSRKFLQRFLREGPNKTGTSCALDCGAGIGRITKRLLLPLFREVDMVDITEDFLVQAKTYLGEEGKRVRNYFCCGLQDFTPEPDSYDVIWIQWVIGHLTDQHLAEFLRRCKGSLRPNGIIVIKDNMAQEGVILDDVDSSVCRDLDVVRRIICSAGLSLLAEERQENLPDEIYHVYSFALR
UniProt Q9UGC7: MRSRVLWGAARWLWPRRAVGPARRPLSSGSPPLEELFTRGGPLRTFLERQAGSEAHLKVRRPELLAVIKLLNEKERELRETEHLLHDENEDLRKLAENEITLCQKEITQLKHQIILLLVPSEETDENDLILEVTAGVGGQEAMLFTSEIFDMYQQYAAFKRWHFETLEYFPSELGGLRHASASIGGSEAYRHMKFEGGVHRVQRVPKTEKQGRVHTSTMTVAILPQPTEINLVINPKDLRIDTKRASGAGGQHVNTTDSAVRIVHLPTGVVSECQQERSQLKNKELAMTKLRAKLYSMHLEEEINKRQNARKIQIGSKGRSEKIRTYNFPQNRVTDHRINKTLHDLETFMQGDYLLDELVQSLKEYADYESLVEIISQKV
UniProt Q14696: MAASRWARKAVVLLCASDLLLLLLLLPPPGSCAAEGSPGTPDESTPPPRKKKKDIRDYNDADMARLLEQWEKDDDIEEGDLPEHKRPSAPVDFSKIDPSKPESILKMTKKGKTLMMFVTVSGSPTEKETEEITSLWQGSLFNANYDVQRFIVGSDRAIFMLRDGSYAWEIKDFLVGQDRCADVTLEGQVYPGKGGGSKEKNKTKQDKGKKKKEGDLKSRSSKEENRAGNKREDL
UniProt O75592: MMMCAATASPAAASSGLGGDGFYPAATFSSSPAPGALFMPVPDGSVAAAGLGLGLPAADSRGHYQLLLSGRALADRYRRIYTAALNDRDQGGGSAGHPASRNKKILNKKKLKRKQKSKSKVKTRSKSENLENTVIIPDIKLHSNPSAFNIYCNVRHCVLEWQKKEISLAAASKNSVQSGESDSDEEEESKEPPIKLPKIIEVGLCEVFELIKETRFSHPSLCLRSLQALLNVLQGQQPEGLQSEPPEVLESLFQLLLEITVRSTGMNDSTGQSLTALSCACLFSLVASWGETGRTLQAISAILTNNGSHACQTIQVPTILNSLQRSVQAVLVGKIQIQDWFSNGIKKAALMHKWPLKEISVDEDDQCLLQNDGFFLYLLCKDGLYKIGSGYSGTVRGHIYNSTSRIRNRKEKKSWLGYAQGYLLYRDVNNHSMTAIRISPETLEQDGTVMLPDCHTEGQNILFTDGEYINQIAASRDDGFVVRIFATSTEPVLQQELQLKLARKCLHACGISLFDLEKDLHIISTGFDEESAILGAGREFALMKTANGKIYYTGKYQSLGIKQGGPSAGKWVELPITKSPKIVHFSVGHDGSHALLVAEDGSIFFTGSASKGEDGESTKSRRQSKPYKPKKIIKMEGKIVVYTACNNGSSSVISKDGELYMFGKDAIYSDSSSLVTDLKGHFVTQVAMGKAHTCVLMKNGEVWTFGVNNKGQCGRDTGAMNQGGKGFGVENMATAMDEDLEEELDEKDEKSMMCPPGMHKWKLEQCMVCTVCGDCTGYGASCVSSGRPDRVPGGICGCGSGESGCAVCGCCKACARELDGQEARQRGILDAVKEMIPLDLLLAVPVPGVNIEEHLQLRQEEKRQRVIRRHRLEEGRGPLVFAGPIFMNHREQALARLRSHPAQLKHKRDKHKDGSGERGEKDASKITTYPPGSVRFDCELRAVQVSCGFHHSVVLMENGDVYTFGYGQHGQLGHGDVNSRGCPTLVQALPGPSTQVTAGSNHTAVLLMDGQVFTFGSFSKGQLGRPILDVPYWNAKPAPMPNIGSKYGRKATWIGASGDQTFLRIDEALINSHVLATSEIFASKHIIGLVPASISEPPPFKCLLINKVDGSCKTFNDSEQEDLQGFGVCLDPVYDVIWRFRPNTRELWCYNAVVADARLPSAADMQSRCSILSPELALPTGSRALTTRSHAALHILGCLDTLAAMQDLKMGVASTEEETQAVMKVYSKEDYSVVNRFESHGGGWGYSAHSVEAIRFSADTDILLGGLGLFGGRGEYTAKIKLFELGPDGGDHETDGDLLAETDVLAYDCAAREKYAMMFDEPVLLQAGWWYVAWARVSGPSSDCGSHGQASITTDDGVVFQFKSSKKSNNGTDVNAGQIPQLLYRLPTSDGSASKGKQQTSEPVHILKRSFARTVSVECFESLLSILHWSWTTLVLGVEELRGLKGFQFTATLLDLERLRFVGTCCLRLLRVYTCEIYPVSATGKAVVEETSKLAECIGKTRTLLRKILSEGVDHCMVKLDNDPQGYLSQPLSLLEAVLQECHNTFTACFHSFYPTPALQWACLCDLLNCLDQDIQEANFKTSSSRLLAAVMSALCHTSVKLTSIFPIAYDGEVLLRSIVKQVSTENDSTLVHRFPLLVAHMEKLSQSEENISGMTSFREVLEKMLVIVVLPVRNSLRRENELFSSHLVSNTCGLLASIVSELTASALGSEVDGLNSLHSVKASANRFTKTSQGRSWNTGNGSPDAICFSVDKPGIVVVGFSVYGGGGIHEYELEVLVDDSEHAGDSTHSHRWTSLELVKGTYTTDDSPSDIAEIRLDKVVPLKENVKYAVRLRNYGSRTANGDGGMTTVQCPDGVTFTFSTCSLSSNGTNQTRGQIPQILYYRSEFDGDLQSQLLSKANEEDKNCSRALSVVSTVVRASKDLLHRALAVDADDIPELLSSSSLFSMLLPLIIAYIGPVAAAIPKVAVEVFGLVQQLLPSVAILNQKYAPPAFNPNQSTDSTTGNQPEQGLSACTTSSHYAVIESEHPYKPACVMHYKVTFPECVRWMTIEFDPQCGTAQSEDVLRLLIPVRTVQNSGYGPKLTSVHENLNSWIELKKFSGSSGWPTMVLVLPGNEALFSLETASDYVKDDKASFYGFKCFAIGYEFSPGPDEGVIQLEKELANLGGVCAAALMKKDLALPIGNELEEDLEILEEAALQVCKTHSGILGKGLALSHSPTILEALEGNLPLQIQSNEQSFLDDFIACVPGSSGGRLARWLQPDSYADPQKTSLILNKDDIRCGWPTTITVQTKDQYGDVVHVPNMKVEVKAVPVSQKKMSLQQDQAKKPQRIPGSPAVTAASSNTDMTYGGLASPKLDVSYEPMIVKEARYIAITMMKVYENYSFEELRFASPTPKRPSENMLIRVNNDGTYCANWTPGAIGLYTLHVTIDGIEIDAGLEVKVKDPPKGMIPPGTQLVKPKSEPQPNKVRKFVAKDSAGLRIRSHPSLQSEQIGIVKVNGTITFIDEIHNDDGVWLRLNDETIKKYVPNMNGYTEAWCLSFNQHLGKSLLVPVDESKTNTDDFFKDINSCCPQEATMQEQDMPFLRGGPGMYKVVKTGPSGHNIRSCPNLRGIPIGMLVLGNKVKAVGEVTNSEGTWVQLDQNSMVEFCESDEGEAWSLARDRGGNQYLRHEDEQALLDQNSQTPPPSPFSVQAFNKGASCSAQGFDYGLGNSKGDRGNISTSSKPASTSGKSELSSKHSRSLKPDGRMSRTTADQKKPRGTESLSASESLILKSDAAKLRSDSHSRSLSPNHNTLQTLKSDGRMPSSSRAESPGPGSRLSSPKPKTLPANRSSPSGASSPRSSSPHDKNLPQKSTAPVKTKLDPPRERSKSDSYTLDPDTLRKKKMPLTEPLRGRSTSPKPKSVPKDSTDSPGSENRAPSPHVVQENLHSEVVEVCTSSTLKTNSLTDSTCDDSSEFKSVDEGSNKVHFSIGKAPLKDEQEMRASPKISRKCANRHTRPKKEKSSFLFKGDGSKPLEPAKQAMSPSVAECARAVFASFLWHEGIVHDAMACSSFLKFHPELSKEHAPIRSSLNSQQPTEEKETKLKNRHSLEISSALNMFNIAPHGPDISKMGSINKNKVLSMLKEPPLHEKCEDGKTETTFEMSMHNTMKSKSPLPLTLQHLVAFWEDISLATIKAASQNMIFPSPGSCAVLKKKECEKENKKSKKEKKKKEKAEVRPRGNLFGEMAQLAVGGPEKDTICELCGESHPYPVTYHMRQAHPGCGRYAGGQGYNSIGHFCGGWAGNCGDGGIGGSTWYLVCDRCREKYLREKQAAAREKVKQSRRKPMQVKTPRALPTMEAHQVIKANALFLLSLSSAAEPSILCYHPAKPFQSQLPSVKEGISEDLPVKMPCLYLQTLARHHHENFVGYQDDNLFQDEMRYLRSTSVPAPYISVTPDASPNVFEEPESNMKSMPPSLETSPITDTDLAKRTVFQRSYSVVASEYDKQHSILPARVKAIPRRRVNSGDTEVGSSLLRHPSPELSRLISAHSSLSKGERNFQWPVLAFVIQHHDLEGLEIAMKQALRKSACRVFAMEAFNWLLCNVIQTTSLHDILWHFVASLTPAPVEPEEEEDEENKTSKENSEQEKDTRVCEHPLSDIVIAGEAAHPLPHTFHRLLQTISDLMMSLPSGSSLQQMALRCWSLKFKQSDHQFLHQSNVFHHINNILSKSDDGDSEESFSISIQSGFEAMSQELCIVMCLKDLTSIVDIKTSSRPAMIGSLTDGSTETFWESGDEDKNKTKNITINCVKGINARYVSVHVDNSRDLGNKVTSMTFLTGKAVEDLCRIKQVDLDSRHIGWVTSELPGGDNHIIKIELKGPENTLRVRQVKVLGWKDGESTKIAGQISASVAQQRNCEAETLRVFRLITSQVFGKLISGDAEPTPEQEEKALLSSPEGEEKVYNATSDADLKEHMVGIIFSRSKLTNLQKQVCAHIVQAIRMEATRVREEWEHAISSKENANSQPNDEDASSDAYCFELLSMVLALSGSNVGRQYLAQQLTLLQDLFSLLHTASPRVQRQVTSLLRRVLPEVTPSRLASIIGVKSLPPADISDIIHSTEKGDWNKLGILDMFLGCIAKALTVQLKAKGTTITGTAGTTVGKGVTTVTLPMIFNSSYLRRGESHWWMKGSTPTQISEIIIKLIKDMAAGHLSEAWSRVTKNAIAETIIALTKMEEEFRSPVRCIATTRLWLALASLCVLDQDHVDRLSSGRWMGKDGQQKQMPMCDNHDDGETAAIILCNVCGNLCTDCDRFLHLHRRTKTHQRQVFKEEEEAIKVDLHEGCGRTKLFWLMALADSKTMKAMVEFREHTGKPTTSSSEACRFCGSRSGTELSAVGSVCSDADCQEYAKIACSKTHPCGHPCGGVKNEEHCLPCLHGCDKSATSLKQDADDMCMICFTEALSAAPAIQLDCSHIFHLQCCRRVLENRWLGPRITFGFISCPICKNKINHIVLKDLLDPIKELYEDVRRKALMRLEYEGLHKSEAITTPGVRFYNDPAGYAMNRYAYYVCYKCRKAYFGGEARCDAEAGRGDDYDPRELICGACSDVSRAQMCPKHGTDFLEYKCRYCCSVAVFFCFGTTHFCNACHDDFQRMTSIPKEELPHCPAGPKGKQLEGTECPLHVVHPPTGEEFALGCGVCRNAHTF
UniProt B0I1T2: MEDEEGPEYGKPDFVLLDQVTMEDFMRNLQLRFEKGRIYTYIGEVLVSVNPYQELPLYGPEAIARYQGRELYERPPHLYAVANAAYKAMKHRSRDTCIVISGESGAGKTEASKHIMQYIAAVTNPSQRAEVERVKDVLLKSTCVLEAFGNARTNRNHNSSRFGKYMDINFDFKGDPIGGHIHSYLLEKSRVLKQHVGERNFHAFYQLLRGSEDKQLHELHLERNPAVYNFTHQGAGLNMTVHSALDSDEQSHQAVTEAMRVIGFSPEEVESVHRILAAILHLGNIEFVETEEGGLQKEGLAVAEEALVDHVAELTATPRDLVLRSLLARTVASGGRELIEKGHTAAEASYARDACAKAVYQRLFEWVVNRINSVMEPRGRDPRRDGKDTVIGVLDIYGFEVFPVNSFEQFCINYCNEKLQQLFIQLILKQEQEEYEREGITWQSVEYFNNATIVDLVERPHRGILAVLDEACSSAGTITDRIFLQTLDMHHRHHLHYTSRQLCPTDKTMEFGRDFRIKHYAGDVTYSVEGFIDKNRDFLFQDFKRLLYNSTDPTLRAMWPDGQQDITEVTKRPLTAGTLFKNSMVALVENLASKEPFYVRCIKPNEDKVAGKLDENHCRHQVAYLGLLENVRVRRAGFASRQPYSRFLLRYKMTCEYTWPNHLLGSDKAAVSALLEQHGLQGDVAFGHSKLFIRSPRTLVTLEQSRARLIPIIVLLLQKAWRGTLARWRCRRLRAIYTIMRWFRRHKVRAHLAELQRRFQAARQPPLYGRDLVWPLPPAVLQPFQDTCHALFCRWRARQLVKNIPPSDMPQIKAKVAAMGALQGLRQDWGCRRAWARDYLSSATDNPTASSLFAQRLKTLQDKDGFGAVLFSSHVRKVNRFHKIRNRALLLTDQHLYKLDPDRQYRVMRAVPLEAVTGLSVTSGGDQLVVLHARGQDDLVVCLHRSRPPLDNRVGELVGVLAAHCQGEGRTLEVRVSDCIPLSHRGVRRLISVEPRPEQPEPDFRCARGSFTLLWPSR

These targets were tested with COc1ccc(Cn2ccc3cc(C)c(C(=O)NO)cc32)cc1 (assay: dose-dependent thermal stabilisation call (2D-TPP, DLPTP, 10% FDR) (binary (1 = stabilised)); higher = stabilised by the compound). Settings: system: HL-60 intact cells; concentration range 0.04-10 µM.
Method: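 2D thermal proteome profiling in intact HL-60 cells treated with BRD-3811 (0, 0.04, 0.29, 2, 10 uM) for 90 min at 37 C, then heated 3 min at one of 12 temperatures (42-63.9 C). Soluble protein was quantified by TMT10 MS. The value is the DLPTP call of the paper: dose-dependent thermal stabilisation over all temperatures at 10% FDR (F-test of a dose-response against a flat model); one experiment, one call per tested protein.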

Target	dose-dependent thermal stabilisation call
MRPS6 (UniProt P82932)	inactive: 0
MYH10 (UniProt P35580)	inactive: 0
MRPS28 (UniProt Q9Y2Q9)	inactive: 0
MED15 (UniProt Q96RN5)	inactive: 0
MTFMT (UniProt Q96DP5)	inactive: 0
MRPS24 (UniProt Q96EL2)	inactive: 0
MRPS25 (UniProt P82663)	inactive: 0
MMAB (UniProt Q96EY8)	inactive: 0
MRM1 (UniProt Q6IN84)	inactive: 0
MYEF2 (UniProt Q9P2K5)	inactive: 0
MTMR9 (UniProt Q96QG7)	inactive: 0
MTA1 (UniProt Q13330)	inactive: 0
MRPS16 (UniProt Q9Y3D3)	inactive: 0
MON1A (UniProt Q86VX9)	inactive: 0
METTL11A (UniProt Q9BV86)	inactive: 0
METAP1 (UniProt P53582)	inactive: 0
MRPL4 (UniProt Q9BYD3)	inactive: 0
MELK (UniProt Q14680)	inactive: 0
MRS2 (UniProt Q9HD23)	inactive: 0
MRTO4 (UniProt Q9UKD2)	inactive: 0

Nine entries from above, bar-delimited.
Target | dose-dependent thermal stabilisation call
MTA1 (UniProt Q13330) | inactive: 0
MRPS16 (UniProt Q9Y3D3) | inactive: 0
MON1A (UniProt Q86VX9) | inactive: 0
METTL11A (UniProt Q9BV86) | inactive: 0
METAP1 (UniProt P53582) | inactive: 0
MRPL4 (UniProt Q9BYD3) | inactive: 0
MELK (UniProt Q14680) | inactive: 0
MRS2 (UniProt Q9HD23) | inactive: 0
MRTO4 (UniProt Q9UKD2) | inactive: 0

(further entries)

Target	dose-dependent thermal stabilisation call
MTRF1L (UniProt Q9UGC7)	inactive: 0
MTMR2 (UniProt Q13614)	inactive: 0
MKI67 (UniProt P46013)	inactive: 0
MRPS18C (UniProt Q9Y3D5)	inactive: 0
MRPS34 (UniProt P82930)	inactive: 0
MVK (UniProt Q03426)	inactive: 0
MGC3196	inactive: 0
MON2 (UniProt Q7Z3U7)	inactive: 0
MECR (UniProt Q9BV79)	inactive: 0
MTIF2 (UniProt P46199)	inactive: 0
MRPL39 (UniProt Q9NYK5)	inactive: 0
MSH2 (UniProt P43246)	inactive: 0
MGEA5 (UniProt O60502)	inactive: 0
MTERFD2 (UniProt Q7Z6M4)	inactive: 0
MESDC2 (UniProt Q14696)	inactive: 0
MYCBP2 (UniProt O75592)	inactive: 0
MRPL17 (UniProt Q9NRX2)	inactive: 0
MYO1G (UniProt B0I1T2)	inactive: 0
MTMR1 (UniProt Q13613)	inactive: 0
MINPP1 (UniProt Q9UNW1)	inactive: 0
